In paper PMC11649789:
Results are given in words; binding and its absence hold for the method and conditions named. Binding seen in cells or lysates may run through a third protein. Some entries that bind do so weakly or less than the wild type.

Sequences of proteins named here, by UniProt entry; tags and fusion partners are left off.
UniProt P05198: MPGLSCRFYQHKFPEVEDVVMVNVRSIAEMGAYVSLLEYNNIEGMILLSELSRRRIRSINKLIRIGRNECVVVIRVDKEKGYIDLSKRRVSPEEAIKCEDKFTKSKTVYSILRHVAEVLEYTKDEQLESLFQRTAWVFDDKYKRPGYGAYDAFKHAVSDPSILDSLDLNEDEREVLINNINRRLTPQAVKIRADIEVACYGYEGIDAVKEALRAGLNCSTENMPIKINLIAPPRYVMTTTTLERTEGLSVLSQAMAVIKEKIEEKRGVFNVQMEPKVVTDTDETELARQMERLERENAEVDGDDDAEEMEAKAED
UniProt P17931: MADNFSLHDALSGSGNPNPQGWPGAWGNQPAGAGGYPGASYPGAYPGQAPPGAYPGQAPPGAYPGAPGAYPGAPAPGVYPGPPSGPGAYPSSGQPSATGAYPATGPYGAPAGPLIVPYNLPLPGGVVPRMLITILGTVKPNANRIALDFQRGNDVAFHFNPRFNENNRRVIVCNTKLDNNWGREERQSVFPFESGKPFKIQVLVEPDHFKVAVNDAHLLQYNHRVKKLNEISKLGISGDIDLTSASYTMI

What was measured:
FLAG-eIF2α = FLAG-eIF2α (UniProt P05198); experiment: co-IP; HEK293T expressing FLAG or FLAG-eIF2α, untreated or 1 mM LLOMe 30 min; NP-40 lysate, anti-FLAG antibody, Dynabeads; immunoblot (Fig. 3D)
FLAG-Gal3 = FLAG-Gal3 (UniProt P17931); experiment: co-IP; HEK293T expressing FLAG-Gal3; untreated or 1 mM LLOMe 30 min; NP-40 lysate, anti-FLAG antibody, Dynabeads; immunoblot (Fig. 6C)

B1: PACT, protein activator of PKR, endogenous (protein, UniProt O75569 1-313)
chain: MSQSRHRAEAPPLEREDSGTFSLGKMITAKPGKTPIQVLHEYGMKTKNIPVYECERSDVQIHVPTFTFRVTVGDITCTGEGTSKKLAKHRAAEAAINILKANASICFAVPDPLMPDPSKQPKNQLNPIGSLQELAIHHGWRLPEYTLSQEGGPAHKREYTTICRLESFMETGKGASKKQAKRNAAEKFLAKFSNISPENHISLTNVVGHSLGCTWHSLRNSPGEKINLLKRSLLSIPNTDYIQLLSEIAKEQGFNITYLDIDELSANGQYQCLAELSTSPITVCHGSGISCGNAQSDAAHNALQYLKIIAERK
binding (FLAG-eIF2α): binds | binding (FLAG-Gal3): binds
